{"sequences": {"note": "By UniProt entry, the sequences of proteins in these tests, tags left out. Where a name states a change or a piece, a line headed by the entry shows the natural chain unless it says otherwise.", "UniProt P51450": "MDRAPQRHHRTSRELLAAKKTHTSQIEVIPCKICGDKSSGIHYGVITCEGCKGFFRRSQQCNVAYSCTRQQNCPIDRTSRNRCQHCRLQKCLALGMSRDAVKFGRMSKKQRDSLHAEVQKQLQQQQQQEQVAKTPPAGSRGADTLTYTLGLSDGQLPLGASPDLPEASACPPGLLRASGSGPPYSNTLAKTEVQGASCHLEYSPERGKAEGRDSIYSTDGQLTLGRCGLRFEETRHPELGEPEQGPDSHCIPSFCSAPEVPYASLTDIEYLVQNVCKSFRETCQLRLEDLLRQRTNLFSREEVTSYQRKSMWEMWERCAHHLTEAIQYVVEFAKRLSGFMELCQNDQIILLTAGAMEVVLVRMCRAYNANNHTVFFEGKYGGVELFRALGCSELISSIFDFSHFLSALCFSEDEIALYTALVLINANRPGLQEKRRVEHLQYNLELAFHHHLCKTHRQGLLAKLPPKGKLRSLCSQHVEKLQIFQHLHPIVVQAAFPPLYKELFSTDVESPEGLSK"}, "source": "PubChem BioAssay AID2551", "about": "(National Center for Advancing Translational Sciences (NCATS), 2010)", "note": "Out of some 310,000 compounds screened, about 17,000 (5.5%) were called active. The inconclusive results got no clear call from the source; some entries with a clear call stand among them for comparison. Calls follow the shape of the dose curve; as a rule, active = well fitted inhibition curve with a large enough effect; inconclusive = small, poorly fitted or top-dose-only effect, or effect the other way; inactive = no such curve, though single readings can be large or run the other way. Where the call is inconclusive, the potency comes from a doubtful curve fit. % is scaled to controls: 0 for no effect and ±100 for the full control effect; potency is read from the fitted curve at half-maximal effect."}
{"molecular_target": "Nuclear receptor ROR-gamma (Mus musculus) (UniProt P51450)", "assay": "qHTS for inhibitors of ROR gamma transcriptional activity; also: nearly all actives have a fitted effect of over 60% in size", "details": "Drosophila S2 Gal4-RORgamma UAS-luciferase reporter, 20 h; activity change, negative = inhibition: at 53.6 µM (top of the series)", "method_in_brief": "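Drosophila S2 cells stably expressing Gal4-DBD/mouse RORγ fusion under metallothionein promoter plus UAS-luciferase; compound 1 h, then 700 uM CuSO4 induction for 20 h at ambient temperature; inhibition read as reduced luminescence.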"}
{"smiles": "CCC(=O)N/C(=N/c1nc(C)cc(C)n1)Nc1ccccc1", "activity change, negative = inhibition": "inactive: 4.71%"}
{"smiles": "CCn1c(SCC(=O)Nc2ccc(C(C)=O)cc2)nc2nc3c(cc2c1=O)CCCC3", "Potency": "inconclusive: 35.5 µM [inhibitor, single point]"}
{"smiles": "Cc1ccccc1NC(=O)CCCSc1nc2ccccc2s1", "Potency": "active: 12.6 µM"}
{"smiles": "CCCC(=O)NC(=S)Nc1cccc(NC(=O)c2ccc(Cl)cc2Cl)c1", "Potency": "active: 10 µM"}
{"smiles": "Cc1cccc(-n2c(SCC(=O)Nc3nnc(C)s3)nnc2-c2ccoc2C)c1", "Potency": "inconclusive: 2.51 µM [activator, partial curve, poor fit]"}
{"smiles": "C/C=C/c1ccc(OCCCCOc2ccccc2C(C)=O)c(OC)c1", "Potency": "inconclusive: 22.4 µM [activator, single point]"}
{"smiles": "CCN(Cc1ccccc1)S(=O)(=O)c1ccc(C(=O)Nc2nnc(-c3ccccc3OC)o2)cc1", "Potency": "active: 0.199 µM"}
{"smiles": "O=C(O)c1ccc2c(=O)n3c(nc2c1)/C(=C/c1ccccc1Br)CC3", "activity change, negative = inhibition": "inactive: 39.4%"}
{"smiles": "CCOC(=O)C1=NN(C(=O)c2cccc(Br)c2)C(O)(C(C)(C)C)C1", "note": "(stereo not given)", "Potency": "active: 14.1 µM"}
{"smiles": "Cc1ccc(/C=N/NC(=O)c2nnn(-c3nonc3N)c2CN(C)c2ccccc2)s1", "Potency": "active: 17.8 µM"}
{"smiles": "COc1ccccc1OCC(=O)NNc1c2ccccc2nc2ccccc12", "Potency": "active: 1.58 µM"}
{"smiles": "CSc1ncc(C(=O)Nc2ccc(C(C)=O)cc2)c(C)n1", "activity change, negative = inhibition": "inactive: 39.5%"}
{"smiles": "Cc1onc(-c2ccccc2Cl)c1C(=O)Nc1nnc(Cc2ccc(Cl)cc2)s1", "Potency": "active: 11.2 µM"}
{"smiles": "Cc1cccc(NC(=O)c2ccc(C3SCC(=O)N3CCc3ccccc3)cc2)c1", "note": "(stereo not given)", "Potency": "inconclusive: 14.1 µM [activator, single point]"}
{"smiles": "COc1ccc(NC(C)C(=O)Nc2ccc(C(C)(C)C)cc2)cc1Cl", "note": "(stereo not given)", "Potency": "inconclusive: 2.82 µM [activator, single point]"}
{"smiles": "CSc1ccc(C(=O)C2CCCN(C(=O)c3cccc(N4CCOCC4)c3)C2)cc1", "note": "(stereo not given)", "activity change, negative = inhibition": "inactive: -0.293%"}
{"smiles": "COc1cccc([C@@H]2Oc3ccc(OC)cc3C(=O)[C@H]2OC(=O)NS(=O)(=O)c2ccc(C)cc2)c1", "Potency": "inconclusive: 25.1 µM [activator, single point]"}
{"smiles": "c1c2c(cc3sc(N4CCOCC4)nc13)OCO2", "Potency": "inconclusive: 11.2 µM [inhibitor, single point]"}
{"smiles": "COc1cc(Br)cc(C2C3=C(CCCC3=O)N(c3ccc(F)cc3)C3=C2C(=O)CCC3)c1O", "Potency": "inconclusive: 12.6 µM [activator, single point]"}
{"smiles": "CC(=O)Nc1ccc(NC(=O)C(C)c2cccc(C(=O)c3ccccc3)c2)cc1", "note": "(stereo not given)", "activity change, negative = inhibition": "inactive: 0.774%"}
{"smiles": "Cc1[nH]n(-c2cccc([N+](=O)[O-])c2)c(=O)c1-c1ccccc1", "Potency": "inconclusive: 8.91 µM [activator, partial curve]"}
{"smiles": "Cc1onc(-c2ccccc2Cl)c1C(=O)Nc1nnc(-c2cccc([N+](=O)[O-])c2)s1", "activity change, negative = inhibition": "inactive: -0.826%"}
{"smiles": "O=c1[nH]c(CSc2ncccn2)nc2c1cnn2-c1ccccc1", "Potency": "inconclusive: 35.5 µM [inhibitor, single point]"}
{"smiles": "Cc1[nH]n(-c2ccc(Cl)cc2)c(=O)c1C(=O)c1ccccc1", "Potency": "inconclusive: 28.2 µM [inhibitor, single point]"}
{"smiles": "CC(=O)c1sc(NS(=O)(=O)c2ccc(C)cc2)nc1C", "Potency": "inconclusive: 20 µM [inhibitor, partial curve]"}
{"smiles": "CNC(=S)N/N=C/c1ccc(-c2cccc(C(=O)O)c2)o1", "Potency": "active: 7.08 µM"}
{"smiles": "Cc1ccccc1-c1cc(NCCN2CCOCC2)ncn1", "Potency": "inconclusive: 22.4 µM [activator, single point]"}
{"smiles": "COc1cccc(NC(=S)NCc2ccc(F)cc2)c1", "Potency": "inconclusive: 22.4 µM [inhibitor, single point]"}
{"smiles": "COc1ccc(NC(=O)CN2CCN(Cc3ccccc3)CC2)cc1", "activity change, negative = inhibition": "inactive: -14.2%"}
{"smiles": "COc1cc(OC)c(C(=O)/C=C/c2ccccc2)c(O)c1O", "Potency": "inconclusive: 17.8 µM [inhibitor, single point]"}
{"smiles": "Cc1onc(-c2ccccc2Cl)c1C(=O)Nc1cccnc1", "Potency": "inconclusive: 35.5 µM [activator, single point]"}
{"smiles": "COC(=O)Nc1cc(C)nc2ccccc12", "Potency": "inconclusive: 3.16 µM [activator, single point]"}
{"smiles": "COC(=O)CSc1nnc(CSc2nc(C)cc(C)n2)n1Cc1ccco1", "Potency": "inconclusive: 2.24 µM [activator, partial curve, poor fit]"}
{"smiles": "Cc1nn(C)c(C)c1CN(C)S(=O)(=O)c1ccc(F)cc1", "Potency": "inconclusive: 31.6 µM [activator, single point]"}
{"smiles": "O=C1NC(c2ccc(Br)cc2)=N/C1=C/c1ccco1", "Potency": "inconclusive: 0.316 µM [activator, partial curve, poor fit]"}
{"smiles": "CCOC(=O)/C(C#N)=C/c1cc2ccccc2nc1Cl", "activity change, negative = inhibition": "inactive: -22.3%"}
{"smiles": "O=C(O)CCC(=O)N1CCC[C@H]1C(=O)O", "activity change, negative = inhibition": "inactive: 10.4%"}
{"smiles": "CCOc1ccc(Cn2c3ccc(OC)cc3c3nc4ccccc4nc32)cc1OC", "Potency": "active: 12.6 µM"}
{"smiles": "N#Cc1c(-c2ccccc2)nc(SCc2ccc([N+](=O)[O-])cc2)[nH]c1=O", "activity change, negative = inhibition": "inactive: 1%"}
{"smiles": "Cc1nnc(Sc2nc3c(c(=O)n(C)c(=O)n3C)n2Cc2ccc(Cl)cc2)s1", "Potency": "inconclusive: 8.91 µM [activator, partial curve]"}
{"smiles": "CSc1ccc(/C=N/NC(=O)CNc2cccc3ccccc23)cc1", "Potency": "active: 35.5 µM"}
{"smiles": "O=C(CSc1nc2ccccc2c(=O)n1Cc1ccco1)Nc1cccc(O)c1", "Potency": "inconclusive: 35.5 µM [activator, single point]"}
{"smiles": "Fc1c(F)c(F)c(/C=N/NC(=S)Nc2cccnc2)c(F)c1F", "Potency": "active: 2.51 µM"}
{"smiles": "COc1ccc(CCNC(=S)NC(=O)c2cccc(Cl)c2)cc1OC", "Potency": "active: 11.2 µM"}
{"smiles": "Nc1c(C(=O)Nc2cccc(Cl)c2Cl)sc2nc(-c3cccnc3)ccc12", "Potency": "inconclusive: 4.47 µM [inhibitor, partial curve]"}
{"smiles": "O=C(c1ccc(=O)[nH]c1)N(Cc1cccs1)C1(C(=O)NC2CCCC2)CCCCC1", "activity change, negative = inhibition": "inactive: 6.82%"}
{"smiles": "Cc1ccc(CSc2nc3ccccc3c(=O)n2Cc2ccco2)cc1", "Potency": "inconclusive: 17.8 µM [activator, partial curve, poor fit]"}
{"smiles": "O=C1CCCc2c1nc(-c1ccco1)n2O", "activity change, negative = inhibition": "inactive: -8.9%"}
{"smiles": "CCOc1ccc(/C=C/[N+](=O)[O-])c2ccccc12", "Potency": "inconclusive: 35.5 µM [inhibitor, single point]"}
{"smiles": "O=C(N/N=C/c1ccc(O)cc1)/C(=C/c1ccccc1)CCO", "Potency": "inconclusive: 1.78 µM [activator, partial curve, poor fit]"}
{"smiles": "CN(C)S(=O)(=O)c1cccc(NC(=S)N/N=C/C(c2ccccc2)c2ccccc2)c1", "Potency": "active: 3.55 µM"}
{"smiles": "C/C(=N\\n1c(C)nc2ccccc2c1=O)c1ccc(C)o1", "activity change, negative = inhibition": "inactive: -8.33%"}
{"smiles": "COc1ccc(S(=O)(=O)N2CCCC(C(=O)N3CCN(C)CC3)C2)cc1C", "note": "(stereo not given)", "Potency": "inconclusive: 15.8 µM [inhibitor, single point]"}
{"smiles": "O=C(Nc1ccc(F)cc1)Nc1cc(OCC(F)(F)F)cc(OCC(F)(F)F)c1", "Potency": "inconclusive: 14.1 µM [inhibitor, single point]"}
{"smiles": "COc1ccc(C(=O)/C=C/c2ccc(OC)cc2OC)c(O)c1", "Potency": "active: 0.794 µM"}
{"smiles": "O=C(O)c1cccc(N/N=C/C2=C(Cl)c3cc(Cl)ccc3SC2)c1", "activity change, negative = inhibition": "inactive: 36.1%"}
{"smiles": "O=c1c2cccnc2[nH]c(=S)n1CCC1=CCCCC1", "Potency": "active: 0.891 µM"}
{"smiles": "O=C(Nc1sc2c(c1C(=O)O)CCCC2)c1ccc(Cl)cc1", "Potency": "inconclusive: 17.8 µM [activator, partial curve]"}
{"smiles": "CCOc1ccc(S(=O)(=O)NCc2cccs2)cc1", "activity change, negative = inhibition": "inactive: -0.276%"}
{"smiles": "CC(C)=C1C2C=CC1C1C(=O)N(c3ccc4c(c3)OCO4)C(=O)C21", "note": "(stereo not given)", "Potency": "inconclusive: 35.5 µM [inhibitor, single point]"}
{"smiles": "CCN1CCN(c2nc3ccccc3nc2NS(=O)(=O)c2ccc(NC(C)=O)cc2)CC1", "activity change, negative = inhibition": "inactive: 9.52%"}
{"smiles": "Cc1ccc(NS(=O)(=O)c2ccc3oc(=O)ccc3c2)cc1Cl", "Potency": "inconclusive: 14.1 µM [activator, partial curve]"}
{"smiles": "CCOC(=O)c1c(N2C(=O)C3C4C=CC(O4)C3C2=O)sc2c1CCCC2", "note": "(stereo not given)", "Potency": "inconclusive: 35.5 µM [inhibitor, single point]"}
{"smiles": "CNCc1c(OCc2ccc(F)cc2)ccc2ccccc12", "Potency": "inconclusive: 22.4 µM [activator, single point]"}
{"smiles": "COc1cc(CCN2C(=O)N[C@@H](c3cccc(C(F)(F)F)c3)C(C(C)=O)=C2C)cc(OC)c1OC", "Potency": "inconclusive: 12.6 µM [activator, partial curve]"}
{"smiles": "CC(C)(C)CC(=O)NC(=S)Nc1ccccc1[N+](=O)[O-]", "Potency": "active: 6.31 µM"}
{"smiles": "COc1ccccc1C(=O)NCCn1cc(SCC(=O)NCC2CCCO2)c2ccccc21", "note": "(stereo not given)", "activity change, negative = inhibition": "inactive: 15.5%"}
{"smiles": "Cc1nnc(NC(=O)CSc2nnc(-c3ccc(S(=O)(=O)N4CCCC4)cc3)n2C)s1", "Potency": "inconclusive: 0.0056 µM [inhibitor, full curve, poor fit]"}
{"smiles": "COc1ccccc1CC(=O)Nc1ccc2c(c1)CCC2", "Potency": "inconclusive: 10 µM [activator, partial curve]"}
{"smiles": "CN(C)CCCN(C(=O)c1ccc(S(=O)(=O)N2CCCCCC2)cc1)c1nc2ccc(Br)cc2s1", "Potency": "active: 2.82 µM"}
{"smiles": "CCn1c(NC(=O)c2ccccc2)nc2ccccc21", "Potency": "active: 0.316 µM"}
{"smiles": "Cc1ccc(NC(=O)C2CCN(S(=O)(=O)c3ccc4c(c3)NC(=O)C(C)S4)CC2)c(Cl)c1", "note": "(stereo not given)", "Potency": "inconclusive: 20 µM [activator, single point]"}
{"smiles": "O=C(NN1CCCCC1)c1cccc2ccccc12", "activity change, negative = inhibition": "inactive: -15.6%"}
{"smiles": "CSc1nnc2c3ccccc3n(CCc3ccccc3)c2n1", "activity change, negative = inhibition": "inactive: 8.37%"}
{"smiles": "O=S1(=O)CC/C(=N\\Nc2ccccc2)c2ccsc21", "Potency": "inconclusive: 14.1 µM [activator, single point]"}
